# Experiment: general procedure: solution-phase peptide synthesis; HATU/DIEA
# Details: for conjugation yield: conjugation step
# [1] = late stage modification step, 210 nm
substance,measurement,setting,value
"4-((S)-2-((S)-2-(6-(2,5-dioxo-2,5-dihydro-1H-pyrrol-1-yl)hexanamido)-3-methylbutanamido)-5-ureidopentanamido)benzyl(4-((3R,4S,7S,10S)-4-((S)-sec-butyl)-7,10-diisopropyl-3-(2-((S)-2-((1R,2R)-1-methoxy-2-methyl-3-oxo-3-(((S)-2-phenyl-1-(thiazol-2-yl)ethyl)amino)propyl)pyrrolidin-1-yl)-2-oxoethyl)-5,11-dimethyl-6,9-dioxo-2-oxa-5,8,11-triazatridecan-13-yl)phenyl)(methyl)carbamate 2,2,2-trifluoroacetate",conjugation yield,,54%
"((2R,3R)-3-((S)-1-((3R,4S,5S)-4-((S)-2-((S)-2-((4-(6-(2,5-dioxo-2,5-dihydro-1H-pyrrol-1-yl)-N-methylhexanamido)phenethyl)(methyl)amino)-3-methylbutanamido)-N,3-dimethylbutanamido)-3-methoxy-5-methylheptanoyl)pyrrolidin-2-yl)-3-methoxy-2-methylpropanoyl)-L-phenylalanine 2,2,2-trifluoroacetate",conjugation yield,,62%
"((2R,3R)-3-((S)-1-((3R,4S,5S)-4-((S)-2-((S)-2-((4-((S)-2-((S)-2-(6-(2,5-dioxo-2,5-dihydro-1H-pyrrol-1-yl)hexanamido)-3-methylbutanamido)-5-ureidopentanamido)phenethyl)(methyl)amino)-3-methylbutanamido)-N,3-dimethylbutanamido)-3-methoxy-5-methylheptanoyl)pyrrolidin-2-yl)-3-methoxy-2-methylpropanoyl)-L-phenylalanine 2,2,2-trifluoroacetate",conjugation yield,,36%
"((2R,3R)-3-((S)-1-((3R,4S,5S)-4-((S)-2-((S)-2-((4-aminophenethyl)(methyl)amino)-3-methylbutanamido)-N,3-dimethylbutanamido)-3-methoxy-5-methylheptanoyl)pyrrolidin-2-yl)-3-methoxy-2-methylpropanoyl)-L-phenylalanine 2,2,2-trifluoroacetate",step yield,late stage modification step,66%
"(S)-2-((2R,3R)-3-((S)-1-((3R,4S,5S)-4-((S)-2-((S)-2-((2-aminoethyl)(methyl)amino)-3-methylbutanamido)-N,3-dimethylbutanamido)-3-methoxy-5-methylheptanoyl)pyrrolidin-2-yl)-3-methoxy-2-methylpropanamido)-3-phenylpropanoic acid",step yield,late stage modification step,8%
same,final HPLC purity,[1],93.6%
"(S)-2-((2R,3R)-3-((S)-1-((3R,4S,5S)-4-((S)-2-((S)-2-((3-aminobenzyl) (methyl)amino)-3-methylbutanamido)-N,3-dimethylbutanamido)-3-methoxy-5-methylheptanoyl)pyrrolidin-2-yl)-3-methoxy-2-methylpropanamido)-3-phenylpropanoic acid",step yield,late stage modification step,20%
"(S)-2-((2R,3R)-3-((S)-1-((3R,4S,5S)-4-((S)—N,3-dimethyl-2-((S)-3-methyl-2-(methyl(2-(piperazin-1-yl)ethyl)amino)butanamido)butanamido)-3-methoxy-5-methylheptanoyl)pyrrolidin-2-yl)-3-methoxy-2-methylpropanamido)-3-phenylpropanoic acid, tris trifluoroacetic acid",step yield,late stage modification step,33%
same,final purity (method not given),[1],100%
"(S)-2-((2R,3R)-3-((S)-1-((7S,10S,13S,14R)-1-amino-13-((S)-sec-butyl)-7,10-diisopropyl-14-methoxy-6,12-dimethyl-8,11-dioxo-3-oxa-6,9,12-triazahexadecan-16-oyl)pyrrolidin-2-yl)-3-methoxy-2-methylpropanamido)-3-phenylpropanoic acid",step yield,late stage modification step,19%
same,final HPLC purity,[1],96.7%
"(S)-2-((2R,3R)-3-((S)-1-((8S,11S,14S,15R)-14-((S)-sec-butyl)-8,11-diisopropyl-15-methoxy-7,13-dimethyl-9,12-dioxo-2,7,10,13-tetraazaheptadecan-17-oyl)pyrrolidin-2-yl)-3-methoxy-2-methylpropanamido)-3-phenylpropanoic acid",step yield,late stage modification step,31%
same,final HPLC purity,[1],100%
"(S)-2-((S)-2-((2-(2-aminoethoxy)ethyl)(methyl)amino)-3-methylbutanamido)-N-((3R,4S,5S)-3-methoxy-1-((S)-2-((1R,2R)-1-methoxy-2-methyl-3-oxo-3-(((S)-2-phenyl-1-(thiazol-2-yl)ethyl)amino)propyl)pyrrolidin-1-yl)-5-methyl-1-oxoheptan-4-yl)-N,3-dimethylbutanamide",step yield,late stage modification step,23%
same,final HPLC purity,[1],89.7%
"(S)-2-((S)-2-((2-(2-hydroxyethoxy)ethyl)(methyl)amino)-3-methylbutanamido)-N-((3R,4S,5S)-3-methoxy-1-((S)-2-((1R,2R)-1-methoxy-2-methyl-3-oxo-3-(((S)-2-phenyl-1-(thiazol-2-yl)ethyl)amino)propyl)pyrrolidin-1-yl)-5-methyl-1-oxoheptan-4-yl)-N,3-dimethylbutanamide, trifluoroacetic acid",final purity (method not given),"late stage modification step, LC/MS/UV, 254 nm, TFA salt",94.5%
"(S)-2-((S)-2-((3-aminopropyl)(methyl)amino)-3-methylbutanamido)-N-((3R,4S,5S)-3-methoxy-1-((S)-2-((1R,2R)-1-methoxy-2-methyl-3-oxo-3-(((S)-2-phenyl-1-(thiazol-2-yl)ethyl)amino)propyl)pyrrolidin-1-yl)-5-methyl-1-oxoheptan-4-yl)-N,3-dimethylbutanamide, bis trifluoroacetic acid",step yield,late stage modification step,25%
same,final HPLC purity,"late stage modification step, 254 nm",93.7%
"(S)-2-((S)-2-((4-aminobenzyl) (methyl)amino)-3- methylbutanamido)-N- ((3R,4S,5S)-1-((S)-2-((1R,2R)- 3-(((1S,2R)-1-hydroxy-1- phenylpropan-2-yl)amino)-1-methoxy-2-methyl-3-oxopropyl)pyrrolidin-1-yl)-3-methoxy-5-methyl-1-oxoheptan-4-yl)-N,3-dimethylbutanamide",final purity (method not given),"LC/MS/UV, 254 nm",99.1%
"(S)-2-((S)-2-((4-aminobenzyl)(methyl)amino)-3-methylbutanamido)-N-((3R,4S,5S)-3-methoxy-1-((S)-2-((1R,2R)-1-methoxy-2-methyl-3-oxo-3-(((S)-2-phenyl-1-(thiazol-2-yl)ethyl)amino)propyl)pyrrolidin-1-yl)-5-methyl-1-oxoheptan-4-yl)-N,3-dimethylbutanamide, trifluoroacetic acid",final purity (method not given),"LC/MS/UV, 254 nm, TFA salt",96.7%
"(S)-2-((S)-2-((4-aminobutyl)(methyl)amino)-3-methylbutanamido)-N-((3R,4S,5S)-3-methoxy-1-((S)-2-((1R,2R)-1-methoxy-2-methyl-3-oxo-3-(((S)-2-phenyl-1-(thiazol-2-yl)ethyl)amino)propyl)pyrrolidin-1-yl)-5-methyl-1-oxoheptan-4-yl)-N,3-dimethylbutanamide, bis trifluoroacetic acid",final purity (method not given),"LC/MS/UV, 254 nm, TFA salt",94.9%
"(S)-2-((S)-2-((4-hydroxybenzyl)(methyl)amino)-3-methylbutanamido)-N-((3R,4S,5S)-3-methoxy-1-((S)-2-((1R,2R)-1-methoxy-2-methyl-3-oxo-3-(((S)-2-phenyl-1-(thiazol-2-yl)ethyl)amino)propyl)pyrrolidin-1-yl)-5-methyl-1-oxoheptan-4-yl)-N,3-dimethylbutanamide, trifluoroacetic acid",final purity (method not given),"LC/MS/UV, 254 nm, TFA salt",93.2%
"(S)-2-((S)-2-(((2-aminopyridin-4-yl)methyl)(methyl)amino)-3-methylbutanamido)-N-((3R,4S,5S)-1-((S)-2-((1R,2R)-3-(((1S,2R)-1-hydroxy-1-phenylpropan-2-yl)amino)-1-methoxy-2-methyl-3-oxopropyl)pyrrolidin-1-yl)-3-methoxy-5-methyl-1-oxoheptan-4-y)-N,3-dimethylbutanamide, trifluoroacetic acid",step yield,late stage modification step,6%
same,final HPLC purity,[1],99.2%
"(S)-N-((3R,4S,5S)-1-((S)-2- ((1R,2R)-3-(((1S,2R)-1- hydroxy-1-phenylpropan-2- yl)amino)-1-methoxy-2-methyl-3-oxopropyl)pyrrolidin-1-yl)-3-methoxy-5-methyl-1-oxoheptan-4-yl)-2-((S)-2-((2-(2-hydroxyethoxy)ethyl)(methyl)amino)-3-methylbutanamido)-N,3-dimethylbutanamide",final purity (method not given),"LC/MS/UV, 254 nm",95.5%
"(S)-N-((3R,4S,5S)-1-((S)-2- ((1R,2R)-3-(((1S,2R)-1- hydroxy-1-phenylpropan-2- yl)amino)-1-methoxy-2-methyl-3-oxopropyl)pyrrolidin-1-yl)-3-methoxy-5-methyl-1-oxoheptan-4-yl)-N,3-dimethyl-2-((S)-3-methyl-2-(methyl(2-(methylamino)ethyl)amino)butanamido)butanamide",final purity (method not given),"LC/MS/UV, 254 nm, bis TFA salt",97.5%
"(S)-N-((3R,4S,5S)-1-((S)-2- ((1R,2R)-3-(((1S,2R)-1- hydroxy-1-phenylpropan-2- yl)amino)-1-methoxy-2-methyl- 3-oxopropyl)pyrrolidin-1-yl)-3-methoxy-5-methyl-1-oxoheptan-4-yl)-2-((S)-2-((4-hydroxybenzyl)(methyl)amino)-3-methylbutanamido)-N,3-dimethylbutanamide",final purity (method not given),"LC/MS/UV, 254 nm",98.5%
"(S)-N-((3R,4S,5S)-3-methoxy-1-((S)-2-((1R,2R)-1-methoxy-2-methyl-3-oxo-3-(((S)-2-phenyl-1-(thiazol-2-yl)ethyl)amino)propyl)pyrrolidin-1-yl)-5-methyl-1-oxoheptan-4-yl)-N,3-dimethyl-2-((S)-3-methyl-2-(methyl(2-(methylamino)ethyl)amino)butanamido)butanamide, bis trifluoroacetic acid",final purity (method not given),"LC/MS/UV, 254 nm, TFA salt",99.6%

# Reference: patent publication US10912841B2 (PIERRE FABRE MEDICAMENT, priority 2014, dated 2021)
